Source: publication PMC6781400
No constants are given. Whether binding was seen depends on the method and setting. In cells and extracts the contact can be indirect. Some entries that bind do so weakly or less than the wild type. Tags and fused reporters may be left off the sequences shown.

Amino acid sequences for entries named in this document (tags omitted).
UniProt P24385: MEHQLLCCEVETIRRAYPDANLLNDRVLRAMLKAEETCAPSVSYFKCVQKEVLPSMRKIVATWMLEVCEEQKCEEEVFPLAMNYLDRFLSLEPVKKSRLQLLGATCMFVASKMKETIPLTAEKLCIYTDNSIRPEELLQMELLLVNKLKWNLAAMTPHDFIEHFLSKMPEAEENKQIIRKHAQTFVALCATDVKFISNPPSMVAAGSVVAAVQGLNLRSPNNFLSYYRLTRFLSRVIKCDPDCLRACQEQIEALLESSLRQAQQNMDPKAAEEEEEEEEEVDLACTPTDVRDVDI
UniProt P45973: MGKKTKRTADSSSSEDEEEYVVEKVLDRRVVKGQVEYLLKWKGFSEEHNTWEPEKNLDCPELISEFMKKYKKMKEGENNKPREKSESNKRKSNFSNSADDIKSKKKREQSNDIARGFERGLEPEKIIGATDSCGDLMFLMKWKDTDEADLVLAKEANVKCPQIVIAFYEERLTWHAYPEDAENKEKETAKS

How the values were obtained:
[1] = biological target: CyclinD1 (human (endogenous in HuccT-1, HCCC9810, HIBEpic)) (UniProt P24385); assay: co-IP; endogenous proteins, HuccT-1 and HCCC9810 cell lysates; IP lysis buffer (50 mM Tris-HCl pH 7.4, 150 mM NaCl, 1 mM EDTA, 1% NP-40, 10% glycerin); 2.5 μg antibody with Protein A + G agarose overnight at 4 °C; immunoblot
[2] = biological target: heterochromatin protein 1α (HP1α) (human (endogenous in HuccT-1, HCCC9810, HIBEpic)) (UniProt P45973); assay: as above

Row | binding [1] | binding [2] | Molecule
1 | binds | – | heterochromatin protein 1α (HP1α) (from UniProt P45973 1-191)
2 | binds | binds | histone methyltransferase Suv39H1 (enzyme, UniProt O43463 1-412) MAENLKGCSVCCKSSWNQLQDLCRLAKLSCPALGISKRNLYDFEVEYLCDYKKIREQEYYLVKWRGYPDSESTWEPRQNLKCVRILKQFHKDLERELLRRHHRSKTPRHLDPSLANYLVQKAKQRRALRRWEQELNAKRSHLGRITVENEVDLDGPPRAFVYINEYRVGEGITLNQVAVGCECQDCLWAPTGGCCPGASLHKFAYNDQGQVRLRAGLPIYECNSRCRCGYDCPNRVVQKGIRYDLCIFRTDDGRGWGVRTLEKIRKNSFVMEYVGEIITSEEAERRGQIYDRQGATYLFDLDYVEDVYTVDAAYYGNISHFVNHSCDPNLQVYNVFIDNLDERLPRIAFFATRTIRAGEELTFDYNMQVDPVDMESTRMDSNFGLAGLPGSPKKRVRIECKCGTESCRKYLF
